For 2 molecules, binding results are on record in US20240043534A1.

These are yes or no findings as the source states them, for the method shown. Binding can be weak; no strength is given.

For the assay, the target named is N-terminal methyltransferase domain of the Zika virus bifunctional NS5 enzyme (MT ZIKV) (Zika virus). In words: SPR (FIG. 7C).

B1: Z2C4 ZIKV LRT-Fab (Fab, V domains shown)
VH: EVQLVESGGGLVQPGGSLRLSCAASGFNVYYSSIHWVRQAPGKGLEWVAYIYPSSGSTYYADSVKGRFTISADTSKNTAYLQMNSLRAEDTAVYYCARSWSPYGMDYWGQGTLVTVSS
VL: DIQMTQSPSSLSASVGDRVTITCRASQSVSSAVAWYQQKPGKAPKLLIYSASSLYSGVPSRFSGSRSGTDFTLTISSLQPEDFATYYCQQWYDSLITFGQGTKVEIKR
Consider B1, for which the binding result was “binds”.

B2: Z2G6 ZIKV LRT-Fab (Fab, V domains shown)
VH: EVQLVESGGGLVQPGGSLRLSCAASGFNVYYYYIHWVRQAPGKGLEWVASIYSYSGYTYYADSVKGRFTISADTSKNTAYLQMNSLRAEDTAVYYCAREGVWWEDEFYPGLDYWGQGTLVTVSS
VL: DIQMTQSPSSLSASVGDRVTITCRASQSVSSAVAWYQQKPGKAPKLLIYSASSLYSGVPSRFSGSRSGTDFTLTISSLQPEDFATYYCQQSWSSLFTFGQGTKVEIKR
As to B2, the binding result was “binds”.
